Experimental data taken from PMC10284917.

By UniProt entry, the sequences of proteins in these tests, tags left out. Residues count along the entry.
UniProt Q27J81: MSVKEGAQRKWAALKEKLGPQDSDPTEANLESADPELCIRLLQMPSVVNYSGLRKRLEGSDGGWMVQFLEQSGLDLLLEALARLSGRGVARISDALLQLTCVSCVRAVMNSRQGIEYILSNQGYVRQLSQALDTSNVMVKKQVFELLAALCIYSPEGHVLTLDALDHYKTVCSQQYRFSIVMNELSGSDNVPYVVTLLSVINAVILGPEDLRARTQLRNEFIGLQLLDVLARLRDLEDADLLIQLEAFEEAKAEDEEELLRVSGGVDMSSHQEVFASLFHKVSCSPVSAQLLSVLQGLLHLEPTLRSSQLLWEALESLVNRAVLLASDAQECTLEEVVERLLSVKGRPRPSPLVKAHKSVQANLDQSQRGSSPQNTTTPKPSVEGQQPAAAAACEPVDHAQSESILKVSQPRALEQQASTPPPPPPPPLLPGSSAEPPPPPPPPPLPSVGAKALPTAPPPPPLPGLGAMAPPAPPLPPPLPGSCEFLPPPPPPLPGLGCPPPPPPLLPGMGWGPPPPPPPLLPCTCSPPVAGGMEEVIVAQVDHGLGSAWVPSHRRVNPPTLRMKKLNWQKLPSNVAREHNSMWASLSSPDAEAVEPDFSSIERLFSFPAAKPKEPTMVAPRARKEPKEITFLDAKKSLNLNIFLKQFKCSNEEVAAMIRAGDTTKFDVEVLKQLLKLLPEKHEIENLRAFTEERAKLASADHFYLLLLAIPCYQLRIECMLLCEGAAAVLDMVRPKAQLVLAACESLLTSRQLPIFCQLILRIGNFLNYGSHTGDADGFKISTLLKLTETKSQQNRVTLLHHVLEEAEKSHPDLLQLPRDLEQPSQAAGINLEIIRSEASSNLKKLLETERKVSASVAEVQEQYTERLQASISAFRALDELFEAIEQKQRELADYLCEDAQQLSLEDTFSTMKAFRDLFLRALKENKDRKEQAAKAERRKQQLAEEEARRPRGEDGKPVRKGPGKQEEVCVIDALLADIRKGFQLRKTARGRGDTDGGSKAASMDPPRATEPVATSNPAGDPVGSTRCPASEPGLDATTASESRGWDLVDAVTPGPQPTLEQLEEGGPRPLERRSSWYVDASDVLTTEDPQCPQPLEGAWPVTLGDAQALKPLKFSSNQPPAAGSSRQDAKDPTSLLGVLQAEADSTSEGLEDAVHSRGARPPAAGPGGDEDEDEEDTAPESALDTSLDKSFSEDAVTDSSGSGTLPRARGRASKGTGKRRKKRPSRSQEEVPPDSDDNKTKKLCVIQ
UniProt P30520: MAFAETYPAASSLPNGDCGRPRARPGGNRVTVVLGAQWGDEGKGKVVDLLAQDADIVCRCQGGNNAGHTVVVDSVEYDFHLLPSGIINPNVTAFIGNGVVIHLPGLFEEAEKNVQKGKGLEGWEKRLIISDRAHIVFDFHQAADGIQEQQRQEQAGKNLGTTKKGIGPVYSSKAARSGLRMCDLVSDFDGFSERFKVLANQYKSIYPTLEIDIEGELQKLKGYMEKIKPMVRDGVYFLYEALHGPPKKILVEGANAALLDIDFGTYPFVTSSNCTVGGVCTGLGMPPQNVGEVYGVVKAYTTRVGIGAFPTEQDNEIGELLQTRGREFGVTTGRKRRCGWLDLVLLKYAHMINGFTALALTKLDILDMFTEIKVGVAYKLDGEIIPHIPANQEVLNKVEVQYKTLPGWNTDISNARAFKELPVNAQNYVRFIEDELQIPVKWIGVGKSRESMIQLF
UniProt Q01518: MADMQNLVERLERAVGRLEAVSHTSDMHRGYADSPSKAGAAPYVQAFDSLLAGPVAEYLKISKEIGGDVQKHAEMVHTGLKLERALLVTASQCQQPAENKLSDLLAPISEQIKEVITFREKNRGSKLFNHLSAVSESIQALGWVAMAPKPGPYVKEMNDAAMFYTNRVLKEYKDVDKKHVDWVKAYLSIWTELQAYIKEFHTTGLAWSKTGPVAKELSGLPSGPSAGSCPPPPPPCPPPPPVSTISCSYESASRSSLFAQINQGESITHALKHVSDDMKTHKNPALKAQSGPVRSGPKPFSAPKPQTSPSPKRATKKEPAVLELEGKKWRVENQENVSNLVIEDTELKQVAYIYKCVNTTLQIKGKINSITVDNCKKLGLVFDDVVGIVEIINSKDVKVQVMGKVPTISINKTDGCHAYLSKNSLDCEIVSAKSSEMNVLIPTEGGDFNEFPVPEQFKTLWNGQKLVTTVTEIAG
UniProt Q15118, residues 29-436: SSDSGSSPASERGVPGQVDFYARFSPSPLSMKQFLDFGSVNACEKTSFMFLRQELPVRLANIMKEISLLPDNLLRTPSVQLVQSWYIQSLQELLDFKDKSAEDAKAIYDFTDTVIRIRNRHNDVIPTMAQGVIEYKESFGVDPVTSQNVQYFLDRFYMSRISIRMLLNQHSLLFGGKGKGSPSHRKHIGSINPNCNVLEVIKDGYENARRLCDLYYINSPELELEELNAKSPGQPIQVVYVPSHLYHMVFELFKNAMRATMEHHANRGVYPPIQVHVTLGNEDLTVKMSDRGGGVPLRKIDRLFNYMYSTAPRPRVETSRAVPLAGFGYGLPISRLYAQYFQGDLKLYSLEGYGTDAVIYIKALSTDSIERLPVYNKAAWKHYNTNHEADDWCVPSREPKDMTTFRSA

Each substance was assayed against FLAG-INF2 (INF2-CAXX, ER-localized inverted formin 2) (UniProt Q27J81) (assay: affinity purification with mass spectrometry; FLAG-INF2 protein complex from HEK-293T cells; anti-FLAG M2 agarose beads, eluted with FLAG peptide, SDS-PAGE, Coomassie Blue staining, mass spectrometry).
For ADSS (from UniProt P30520 1-456), the binding was “binds”.
CAP1 (from UniProt Q01518 1-475) was tested, and the binding was “binds”.
In the case of PDK1 (from UniProt Q15118 29-436), the binding was “binds”.

No constants are given. Whether binding was seen depends on the method and setting. In cells and extracts the contact can be indirect. Here binding means that the protein was enriched with, or labelled near, the bait; the list need not be complete.
